Laboratory results taken from patent US20150218629.
Substitutions are numbered along the chain they refer to. The exact form of at least one protein or probe is not confirmed. Tags and fusion partners may be left off the protein sequences shown.

How the values were obtained:
[1] = target: T1, Hel308 Mbu + 5th domain Hel308 Hvo (Methanococcoides burtonii / Haloferax volcanii) (UniProt Q12WZ6); experiment: binding assay; settings: four 2'-O-methyl uracil at 5' end of SEQ 70; MspA nanopore controlled DNA movement; 100 nM enzyme, 400 mM NaCl, 1 mM ATP, 1 mM MgCl2, +140 mV; purified recombinant protein; protein details: 5th domain of Hel308 Hvo fused to C-terminus; label: 3' cholesterol TEG on SEQ 71
T1 sequence: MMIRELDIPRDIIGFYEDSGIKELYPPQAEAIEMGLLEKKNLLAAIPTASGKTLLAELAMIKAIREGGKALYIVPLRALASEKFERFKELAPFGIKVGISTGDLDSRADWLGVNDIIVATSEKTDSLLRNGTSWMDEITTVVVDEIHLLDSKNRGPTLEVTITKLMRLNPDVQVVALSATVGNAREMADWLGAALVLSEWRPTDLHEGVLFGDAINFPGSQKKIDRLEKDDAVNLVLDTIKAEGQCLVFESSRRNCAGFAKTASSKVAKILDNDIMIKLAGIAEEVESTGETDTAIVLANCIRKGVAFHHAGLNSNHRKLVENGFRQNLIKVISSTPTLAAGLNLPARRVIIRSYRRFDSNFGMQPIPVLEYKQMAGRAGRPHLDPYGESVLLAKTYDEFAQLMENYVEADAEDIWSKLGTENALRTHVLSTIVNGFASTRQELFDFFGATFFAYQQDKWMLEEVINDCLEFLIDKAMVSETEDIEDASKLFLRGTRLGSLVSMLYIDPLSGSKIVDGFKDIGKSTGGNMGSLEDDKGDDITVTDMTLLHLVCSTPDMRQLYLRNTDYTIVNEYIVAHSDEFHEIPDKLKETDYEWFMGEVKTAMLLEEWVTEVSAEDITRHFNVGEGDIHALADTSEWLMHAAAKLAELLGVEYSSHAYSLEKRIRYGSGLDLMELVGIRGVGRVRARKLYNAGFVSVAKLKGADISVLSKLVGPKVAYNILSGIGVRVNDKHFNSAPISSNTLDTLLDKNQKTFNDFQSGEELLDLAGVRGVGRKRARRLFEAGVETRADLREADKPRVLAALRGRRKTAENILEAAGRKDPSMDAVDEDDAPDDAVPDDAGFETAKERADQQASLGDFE

[2] = target: T2, Hel308 Mbu Q442C 2 kDa PEG homodimer (Methanococcoides burtonii) (UniProt Q12WZ6); experiment: binding assay; settings: four 2'-O-methyl uracil at 5' end of SEQ 70; MspA nanopore controlled DNA movement; about 1 nM enzyme, 400 mM KCl, 1 mM ATP, 1 mM MgCl2, +180 mV; purified recombinant protein; label: 3' cholesterol TEG on SEQ 71
T2 sequence (limits assumed): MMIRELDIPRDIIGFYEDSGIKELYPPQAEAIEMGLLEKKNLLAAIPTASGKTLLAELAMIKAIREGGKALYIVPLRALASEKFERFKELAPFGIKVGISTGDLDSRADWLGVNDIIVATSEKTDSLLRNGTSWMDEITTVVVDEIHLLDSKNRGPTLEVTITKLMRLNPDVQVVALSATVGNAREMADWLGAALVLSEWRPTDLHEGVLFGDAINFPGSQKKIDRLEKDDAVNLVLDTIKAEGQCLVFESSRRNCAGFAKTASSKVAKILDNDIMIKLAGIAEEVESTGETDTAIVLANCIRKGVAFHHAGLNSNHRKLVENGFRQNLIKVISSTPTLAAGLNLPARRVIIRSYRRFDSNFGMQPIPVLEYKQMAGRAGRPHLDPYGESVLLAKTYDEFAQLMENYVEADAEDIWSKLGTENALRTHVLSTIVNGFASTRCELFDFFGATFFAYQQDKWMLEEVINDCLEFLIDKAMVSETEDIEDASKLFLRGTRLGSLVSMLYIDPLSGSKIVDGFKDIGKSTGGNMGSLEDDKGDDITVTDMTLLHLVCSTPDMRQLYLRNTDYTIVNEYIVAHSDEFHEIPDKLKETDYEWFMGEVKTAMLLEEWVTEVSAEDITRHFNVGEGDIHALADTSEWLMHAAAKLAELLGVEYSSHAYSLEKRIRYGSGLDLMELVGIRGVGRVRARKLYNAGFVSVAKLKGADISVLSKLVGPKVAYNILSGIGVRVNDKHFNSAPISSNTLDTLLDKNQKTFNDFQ

[3] = target: T3, Hel308 Mbu Q442C 3.4 kDa PEG homodimer (Methanococcoides burtonii) (UniProt Q12WZ6); experiment: binding assay; settings: four 2'-O-methyl uracil at 5' end of SEQ 70; MspA nanopore controlled DNA movement; about 1 nM enzyme, 400 mM KCl, 1 mM ATP, 1 mM MgCl2, +180 mV; purified recombinant protein; label: 3' cholesterol TEG on SEQ 71
T3 sequence (limits assumed): T2 sequence (limits assumed)

[4] = target: T4, Hel308 Mbu A700C 2 kDa PEG homodimer (Methanococcoides burtonii) (UniProt Q12WZ6); experiment: activity assay; settings: four 2'-O-methyl uracil at 5' end of SEQ 70; MspA nanopore; percent of helicase-controlled movements reaching polyT; 10 nM enzyme, 1 M KCl, 1 mM ATP, 10 mM MgCl2, +120 mV; purified recombinant protein; label: 3' cholesterol TEG on SEQ 71
T4 sequence (limits assumed): T2 sequence (limits assumed) with C442Q, A700C

[5] = target: T5, Hel308 Mbu monomer (Methanococcoides burtonii) (UniProt Q12WZ6); experiment: activity assay; settings: four 2'-O-methyl uracil at 5' end of SEQ 70; MspA nanopore; percent of helicase-controlled movements reaching polyT; 100 nM enzyme, 1 M KCl, 1 mM ATP, 10 mM MgCl2, +120 mV; purified recombinant protein; label: 3' cholesterol TEG on SEQ 71
T5 sequence (limits assumed): T2 sequence (limits assumed) with C442Q

## TTTTTTTTTTTTTTTTTTTTTTTTTTTTTTTTTTTTTTTTTTTTTGCCATCAGATTGTGTTTGTTAGTCGCTGGTTGTTTCTGTTGGTGCTGATATTGCTTTTGATGCCGACCCTAAATTTTTTGCCTGTTTGGTTCGCTTTGAGTCTTCTTCGGTTCCGACTACCCTCCCGACTGCCTATGATGTTTATCCTTTGAATGGTCGCCATGATGGTGGTTATTATACCGTCAAGGACTGTGTGACTATTGACGTCCTTCCCCGTACGCCGGGCAATAACGTTTATGTTGGTTTCATGGTTTGGTCTAACTTTACCGCTACTAAATGCCGCGGATTGGTTTCGCTGAATCAGGTTATTAAAGAGATTATTTGTCTCCAGCCACTTAAGTGAGGTGATTTATGTTTGGTGCTATTGCTGGCGGTATTGCTTCTGCTCTTGCTGGTGGCGCCATGTCTAAATTGTTTGGAGGCGGTCTTTTTCCCCCTTTTTCCCCCTTTTTCCCCCTTTTTCCCCCTTTTTCCCCC / AGCGACTAACAAACACAATCTGATGGCTTTTTTTTTTTTTTTTTTTTTTTTTTTTTT
[1]
  binding result: binds
[2]
  binding result: binds
[3]
  binding result: binds
[4]
  activity on this sequence: 47%
[5]
  activity on this sequence: 37%
